Laboratory results taken from publication PMC4479000.
Results are given in words; binding and its absence hold for the method and conditions named. Sequences can lack the tags named with a protein.

Chains of the proteins cited; added tags and fusions are not shown. Residues count along the entry.
UniProt Q04721, residues 26-1677: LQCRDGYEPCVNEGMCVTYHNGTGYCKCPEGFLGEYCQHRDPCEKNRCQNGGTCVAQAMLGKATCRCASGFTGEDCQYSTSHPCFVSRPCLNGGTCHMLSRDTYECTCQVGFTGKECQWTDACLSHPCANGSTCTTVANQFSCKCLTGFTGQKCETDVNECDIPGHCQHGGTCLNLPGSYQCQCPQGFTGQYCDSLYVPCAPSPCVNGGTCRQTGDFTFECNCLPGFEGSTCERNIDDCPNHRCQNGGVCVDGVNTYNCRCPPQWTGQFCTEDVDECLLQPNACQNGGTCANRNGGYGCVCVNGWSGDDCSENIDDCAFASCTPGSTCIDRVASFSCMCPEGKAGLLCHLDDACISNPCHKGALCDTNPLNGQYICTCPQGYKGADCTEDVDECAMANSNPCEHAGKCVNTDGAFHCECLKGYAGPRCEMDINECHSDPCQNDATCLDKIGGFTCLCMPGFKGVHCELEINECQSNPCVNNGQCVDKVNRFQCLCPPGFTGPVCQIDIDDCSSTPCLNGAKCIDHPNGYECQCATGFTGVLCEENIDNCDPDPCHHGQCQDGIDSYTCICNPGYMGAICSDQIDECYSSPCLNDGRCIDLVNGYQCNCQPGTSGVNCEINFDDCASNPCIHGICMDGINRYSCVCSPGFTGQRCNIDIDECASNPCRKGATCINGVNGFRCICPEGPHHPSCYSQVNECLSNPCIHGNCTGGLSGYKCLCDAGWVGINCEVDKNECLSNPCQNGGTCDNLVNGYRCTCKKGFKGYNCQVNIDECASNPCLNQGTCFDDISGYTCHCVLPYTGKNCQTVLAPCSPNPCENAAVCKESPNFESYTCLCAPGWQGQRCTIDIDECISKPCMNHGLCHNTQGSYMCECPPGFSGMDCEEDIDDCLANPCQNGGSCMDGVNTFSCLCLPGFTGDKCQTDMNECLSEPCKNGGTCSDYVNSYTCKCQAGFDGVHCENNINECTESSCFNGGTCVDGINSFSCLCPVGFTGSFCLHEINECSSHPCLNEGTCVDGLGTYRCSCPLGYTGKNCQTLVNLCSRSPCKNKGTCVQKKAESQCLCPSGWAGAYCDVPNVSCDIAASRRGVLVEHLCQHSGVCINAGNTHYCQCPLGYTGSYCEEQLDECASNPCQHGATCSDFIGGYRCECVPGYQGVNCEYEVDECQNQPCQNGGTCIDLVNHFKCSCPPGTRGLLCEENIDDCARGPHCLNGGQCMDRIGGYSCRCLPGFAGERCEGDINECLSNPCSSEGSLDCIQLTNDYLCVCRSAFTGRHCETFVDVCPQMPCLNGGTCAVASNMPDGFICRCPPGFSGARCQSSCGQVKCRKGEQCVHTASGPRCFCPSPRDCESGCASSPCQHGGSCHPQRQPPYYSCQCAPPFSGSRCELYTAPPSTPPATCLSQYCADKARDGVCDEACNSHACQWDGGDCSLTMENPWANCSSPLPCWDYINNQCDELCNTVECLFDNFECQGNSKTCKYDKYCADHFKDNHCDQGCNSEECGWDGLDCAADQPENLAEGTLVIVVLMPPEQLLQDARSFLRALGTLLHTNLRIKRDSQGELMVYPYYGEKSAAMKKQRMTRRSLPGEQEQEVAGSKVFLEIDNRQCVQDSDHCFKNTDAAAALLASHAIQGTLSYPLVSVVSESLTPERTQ

Biological target: T1, Gal4 DNA-binding domain (BD) fused C8orf4 (UniProt Q9NR00)
T1 sequence: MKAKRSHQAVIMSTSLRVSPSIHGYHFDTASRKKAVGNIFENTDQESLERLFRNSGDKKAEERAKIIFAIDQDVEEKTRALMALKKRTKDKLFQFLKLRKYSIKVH
Assay: two-hybrid; Matchmaker Gold Yeast Two-Hybrid system; BD-C8orf4 (pGBKT7) and AD-N2ICD or AD-N2ECD (pGADT7) co-transformed into AH109; SD plate lacking adenine, histidine, tryptophan and leucine; beta-galactosidase activity

binding: no binding
Substance: Gal4-activating domain (AD) fused N2ECD (from UniProt Q04721 26-1677) (domain or fragment)
